PubChem BioAssay AID652259 – Drosophila RNAi Screening Center | 2013
The screen tested about 22,000 reagents; this is an unselected part of those that have a named target and a result. Over the whole deposit, 233 (1.1%) got an active call. 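Light values are raw, unnormalised plate reads; the ratio scores behind the reporter calls were not deposited.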 A number with no mark means an inactive call. No sequences are given here. Not stated in the record: the amount of reagent, the time to read-out, the dose of the treatment.

- Screen: 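Knock-downs that push a Wingless-driven reporter up or down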 (primary screen)
- Cells: Drosophila clone 8 imaginal disc epithelial cells
- Reagents: long dsRNA against Drosophila genes
- Challenge: pathway stimulated by co-transfected Wingless expression plasmid
- Detection: 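Dual luciferase reads per well after Wingless plasmid stimulation: reporter firefly light and Renilla control light; activity is firefly divided by Renilla, a ratio not deposited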
- Direction: firefly reporter light: higher = more Wg reporter light, before normalisation; Renilla control light: higher = more transfected or surviving cells
- Active means: 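a knock-down is a candidate when at least two out of four statistical tests show it departing from its plate mean; one test alone signals a weak candidate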
- Calls: active = candidate regulator (raises or lowers reporter); inactive = not a candidate

CG31036 [DRSC15055] scored firefly reporter light, replicate 1 = 6775; Renilla control light, replicate 1 = 3529.
CG31036 [DRSC15057] gave firefly reporter light, replicate 1 = 7177; Renilla control light, replicate 1 = 2664.
Against Rtnl2 [DRSC12609], the values are firefly reporter light, replicate 1 = 22434; Renilla control light, replicate 1 = 6389.
Silencing of Rtnl2 [DRSC21655] gave: firefly reporter light, replicate 1 = 6.72e5; firefly reporter light, replicate 2 = 6.97e5; Renilla control light, replicate 1 = 3.40e5; Renilla control light, replicate 2 = 2.79e5.
For CG7568 [DRSC16259] the deposit lists firefly reporter light, replicate 1 = 9106; Renilla control light, replicate 1 = 3460.
After knock-down of raptor [DRSC18359], the screen gave firefly reporter light, replicate 1 = 13378; Renilla control light, replicate 1 = 5164.
With knock-down of TTLL5 (Tubulin tyrosine ligase-like 5) [DRSC14181], the screen gave firefly reporter light, replicate 1 = 2905; firefly reporter light, replicate 2 = 4394; Renilla control light, replicate 1 = 1488; Renilla control light, replicate 2 = 1448.
For Ctr1A (Copper transporter 1A) [DRSC18336], the entry reads firefly reporter light, replicate 1 = 20696; Renilla control light, replicate 1 = 10121.
After knock-down of Myo61F (Myosin 61F) [DRSC22144], the record shows firefly reporter light, replicate 1 = 3.42e5; firefly reporter light, replicate 2 = 4.18e5; Renilla control light, replicate 1 = 1.75e5; Renilla control light, replicate 2 = 1.83e5.
After knock-down of Etfb (Electron transfer flavoprotein beta subunit) [DRSC16324], the record shows firefly reporter light, replicate 1 = 4055; firefly reporter light, replicate 2 = 8583; Renilla control light, replicate 1 = 1682; Renilla control light, replicate 2 = 2868.
Silencing of CG10650 [DRSC02085] resulted in: firefly reporter light, replicate 1 = 9404; Renilla control light, replicate 1 = 1578.
After knock-down of CIA30 (Complex I intermediate-associated protein, 30 kDa) [DRSC16266], the screen gave firefly reporter light, replicate 1 = 2769; firefly reporter light, replicate 2 = 6069; Renilla control light, replicate 1 = 1448; Renilla control light, replicate 2 = 2781.
After knock-down of CG13332 [DRSC06367], the record shows firefly reporter light, replicate 1 = 8021; Renilla control light, replicate 1 = 3499.
PpD6 (Protein phosphatase D6) [DRSC00774] gave firefly reporter light, replicate 1 = 1956; firefly reporter light, replicate 2 = 7607; Renilla control light, replicate 1 = 597; Renilla control light, replicate 2 = 2331.
Against FipoQ (F-box involved in polyQ pathogenesis) [DRSC15413], the entry reads firefly reporter light, replicate 1 = 2810; firefly reporter light, replicate 2 = 6392; Renilla control light, replicate 1 = 867; Renilla control light, replicate 2 = 1824.
CG14111 [DRSC10114] scored firefly reporter light, replicate 1 = 8395; Renilla control light, replicate 1 = 3014.
Knock-down of CG5665 [DRSC11783] resulted in: firefly reporter light, replicate 1 = 20672; Renilla control light, replicate 1 = 6176.
